Experimental data: article doi:10.1101/2025.10.10.681657 (bioRxiv, 2025)

Columns and labels:
[1] = tested on: U4U6 RNA; test: SHAPE-MaP structure probing; design: species or system yeast; details: 100 μM compound vs DMSO
[2] = tested on: U4/U6 92 nt RNA; test: CD thermal melting assay of U4/U6 RNA; design: species or system yeast

CN(C)CCNc1nnc(-c2nc(-c3ccc(F)cc3)no2)c2ccccc12 [Compound 22]
effect on RNA structure by SHAPE reactivity [1]: overall stabilization

CCc1nnc(-c2nnc(NCCCN(C)C)c3ccccc23)o1 [Compound 2]
effect on RNA thermodynamic stability (CD melting) [2]: stabilization
ΔTm ([2]; 5 μM RNA with 100 μM compound vs DMSO): +3.3 ± 0.3 °C

Cc1ccc(-n2ncc3c(NCCCN(C)C)ncnc32)cc1Cl [Compound 1]
effect on RNA thermodynamic stability (CD melting) [2]: destabilization
effect on RNA structure by SHAPE reactivity [1]: clear destabilization effect
